In PubChem BioAssay AID2763 (National Center for Advancing Translational Sciences (NCATS), 2010):
This list was built around the results that the source calls inconclusive (neither active nor inactive); the mix of calls is not that of the screen. Potencies beside an inconclusive call are fits to weak or partial responses and may not hold up. The source made the active and inactive calls. Calls come from the whole dose curve; as a rule, active = well fitted inhibition curve with a large enough effect; inconclusive = small, poorly fitted or top-dose-only effect, or effect the other way; inactive = no such curve, though single readings can be large or run the other way.

Assay: Concentration response confirmation VP16 counterscreen for inhibitors of ROR gamma transcriptional activity; note: nearly all actives have a fitted effect of over 70% in size
In short: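 Drosophila Schneider cells stably carrying Gal4-VP16 under metallothionein promoter plus UAS-Photinus luciferase. Compound preincubated 1 hr, then 700 uM copper sulfate induction for 20 hr at ambient temperature; luminescence read.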
Potency is the fitted concentration of half-maximal effect.

SMILES	Potency
COc1ccc(C(C#N)N2N=C(C)CC2c2ccccc2)cc1 (configuration not stated)	inconclusive: 0.01 µM [activator, full curve, poor fit]
Cc1ccc(NC2=C(Cl)C(=O)OC2OC(=O)c2ccco2)cc1 (configuration not stated)	inactive
CCOC(=O)Cc1ccc(NC(=O)c2ccc(C(C)(C)C)cc2)cc1	inconclusive: 7.05 µM [inhibitor, single point]
CCc1ccc(-c2cc(-c3n[nH]c(=S)n3CC)c3ccccc3n2)cc1	inconclusive: 0.0141 µM [activator, full curve, poor fit]
CC(C)(C)c1cc(C(=O)N2CCc3ccccc32)ccn1	inactive
CC(C)(C)S(=O)(=O)c1cnc2c(-c3ccsc3)cnn2c1N	inconclusive: 25 µM [inhibitor, partial curve, poor fit]
S=c1[nH]nc(-c2ccc(Br)cc2)n1-c1ccc2c(c1)OCCO2	inconclusive: 19.9 µM [inhibitor, single point]
S=c1nc(COc2ccccc2)[nH]c2ccccc12	inconclusive: 35.3 µM [inhibitor, single point]
O=[N+]([O-])c1cc2c(cc1/C=N/Nc1nc(Nc3ccccc3)nc(N3CCCCC3)n1)OCO2	inactive
Cc1ccccc1C(=O)OC1OC(=O)C(Cl)=C1Nc1ccccc1 (configuration not stated)	inactive
CCCCn1c(CN2CCN(c3ccccc3)CC2)nc2c1c(=O)n(C)c(=O)n2C	active: 8.88 µM
COc1ccc(C(C#N)N2N=C(C)CC2c2ccccc2)cc1OC (configuration not stated)	inconclusive: 11.2 µM [activator, single point]

Arranged by molecular weight (low to high): three of the compounds above
SMILES	Potency
CCOC(=O)Cc1ccc(NC(=O)c2ccc(C(C)(C)C)cc2)cc1	inconclusive: 7.05 µM [inhibitor, single point]
CCc1ccc(-c2cc(-c3n[nH]c(=S)n3CC)c3ccccc3n2)cc1	inconclusive: 0.0141 µM [activator, full curve, poor fit]
CCCCn1c(CN2CCN(c3ccccc3)CC2)nc2c1c(=O)n(C)c(=O)n2C	active: 8.88 µM
